Laboratory results from article PMC3521008.
Results are given in words; binding and its absence hold for the method and conditions named. Some results given as binding are weak or reduced against the parent protein; the word gives no strength.

Target: T1, MTG16 in the pGAD-GW/pGBT9-GW yeast two-hybrid system (UniProt O75081)
T1 sequence: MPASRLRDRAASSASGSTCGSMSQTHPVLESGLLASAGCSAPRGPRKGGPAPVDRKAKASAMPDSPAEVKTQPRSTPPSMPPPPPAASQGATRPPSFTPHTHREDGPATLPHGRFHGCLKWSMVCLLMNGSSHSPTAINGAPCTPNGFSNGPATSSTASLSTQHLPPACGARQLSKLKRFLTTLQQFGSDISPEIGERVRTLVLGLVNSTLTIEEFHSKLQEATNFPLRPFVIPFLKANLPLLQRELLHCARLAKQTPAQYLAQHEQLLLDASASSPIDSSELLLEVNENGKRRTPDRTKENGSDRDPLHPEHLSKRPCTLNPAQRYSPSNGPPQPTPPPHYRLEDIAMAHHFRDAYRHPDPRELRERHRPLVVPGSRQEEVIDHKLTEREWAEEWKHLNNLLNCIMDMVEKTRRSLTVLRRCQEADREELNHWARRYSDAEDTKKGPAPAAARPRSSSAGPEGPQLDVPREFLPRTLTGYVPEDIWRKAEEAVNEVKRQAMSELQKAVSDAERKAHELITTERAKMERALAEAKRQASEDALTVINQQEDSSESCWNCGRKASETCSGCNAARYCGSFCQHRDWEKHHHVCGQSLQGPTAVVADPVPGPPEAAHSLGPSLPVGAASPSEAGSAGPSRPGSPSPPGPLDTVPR
Experiment: two-hybrid; directed assay in the pGAD-GW/pGBT9-GW system: Kaiso 298-573 with MTG16 and MTG16 deletion constructs; growth on quadruple-dropout plates (-leu, -trp, -his, -ala); empty vector bait as negative control; in triplicate

B1: Kaiso amino acids 298-573 (yeast two-hybrid clone) (domain or fragment, UniProt Q86T24 298-573)
chain: LPNHMPSSINLLVQNQQTPNSAILTGNKANEEEEEEIIDDDDDTISSSPDSAVSNTSLVPQADTSQNTSFDGSLIQKMQIPTLLQEPLSNSLKISDIITRNTNDPGVGSKHLMEGQKIITLDTATEIEGLSTGCKVYANIGEDTYDIVIPVKDDPDEGEARLENEIPKTSGSEMANKRMKVKHDDHYELIVDGRVYYICIVCKRSYVCLTSLRRHFNIHSWEKKYPCRYCEKVFPLAEYRTKHEIHHTGERRYQCLACGKSFINYQFMSSHIKSVH
binding: binds
